The target of one assay is YicC (E. coli) (UniProt P23839). As to the kind of experiment: two-hybrid.
The next assay concerns the target PNPase (E. coli) (UniProt P05055). As to the kind of experiment: two-hybrid.

No constants are given. Whether binding was seen depends on the method and setting. Some binding calls cover weakened binding; strength is not graded here.

B1: YicC (protein, UniProt P23839 1-287)
chain: MIRSMTAYARREIKGEWGSATWEMRSVNQRYLETYFRLPEQFRSLEPVVRERIRSRLTRGKVECTLRYEPDVSAQGELILNEKLAKQLVTAANWVKMQSDEGEINPVDILRWPGVMAAQEQDLDAIAAEILAALDGTLDDFIVARETEGQALKALIEQRLEGVTAEVVKVRSHMPEILQWQRERLVAKLEDAQVQLENNRLEQELVLLAQRIDVAEELDRLEAHVKETYNILKKKEAVGRRLDFMMQEFNRESNTLASKSINAEVTNSAIELKVLIEQMREQIQNIE
Regarding B1, the binding result in the assay with YicC (E. coli) is “binds”.

B2: PNPase (enzyme, UniProt P05055 1-711)
chain: MLNPIVRKFQYGQHTVTLETGMMARQATAAVMVSMDDTAVFVTVVGQKKAKPGQDFFPLTVNYQERTYAAGRIPGSFFRREGRPSEGETLIARLIDRPIRPLFPEGFVNEVQVIATVVSVNPQVNPDIVAMIGASAALSLSGIPFNGPIGAARVGYINDQYVLNPTQDELKESKLDLVVAGTEAAVLMVESEAQLLSEDQMLGAVVFGHEQQQVVIQNINELVKEAGKPRWDWQPEPVNEALNARVAALAEARLSDAYRITDKQERYAQVDVIKSETIATLLAEDETLDENELGEILHAIEKNVVRSRVLAGEPRIDGREKDMIRGLDVRTGVLPRTHGSALFTRGETQALVTATLGTARDAQVLDELMGERTDTFLFHYNFPPYSVGETGMVGSPKRREIGHGRLAKRGVLAVMPDMDKFPYTVRVVSEITESNGSSSMASVCGASLALMDAGVPIKAAVAGIAMGLVKEGDNYVVLSDILGDEDHLGDMDFKVAGSRDGISALQMDIKIEGITKEIMQVALNQAKGARLHILGVMEQAINAPRGDISEFAPRIHTIKINPDKIKDVIGKGGSVIRALTEETGTTIEIEDDGTVKIAATDGEKAKHAIRRIEEITAEIEVGRVYTGKVTRIVDFGAFVAIGGGKEGLVHISQIADKRVEKVTDYLQMGQEVPVKVLEVDRQGRIRLSIKEATEQSQPAAAPEAPAAEQGE
Consider B2, for which the binding entry with PNPase (E. coli) is listed as “binds”.

For the origin of these results see publication doi:10.1101/2021.05.11.443692.
